From patent EP0619297B1, “Fungicides for the control of take-all desease of plants” (MONSANTO COMPANY, priority 1993, dated 1994)
Some of these results come from one statement about several compounds together.

These molecules were tested on Gg (assay: Field tests: treated wheat and barley seed in previously infested fields). Settings: mixed with wheat and barley seed at 0.01 to 50 g active ingredient per kg of seed; compared to check fields seeded with untreated seed.
Format: in vivo, Gaeumannomyces graminis

Q: How did the “incidence of Gg in previously infested fields” value (shortened to “incidence of Gg”) turn out when `CCNC(=O)c1c(OC(C)(C)C)ccc2ccccc12` [Example 6, 2-(1,1-Dimethylethoxy)-N-ethyl-1-naphthalenecarboxamide] was run?
A: Its value is “reduce the incidence of Gg in previously infested fields”.

Q: `CCNC(=O)c1c(NC(C)(C)C)ccc2ccccc12` [Example 20, N-ethyl 2-[(1,1-dimethylethyl)amino]-1-naphthamide] was tested. Which “incidence of Gg” value did it give?
A: The value was “reduce the incidence of Gg in previously infested fields”.

Q: For `CCCNC(=O)c1c(NC(C)(C)C)ccc2ccccc12` [Example 21, N-propyl 2-[(1,1-dimethylethyl)amino]-1-naphthamide], which “incidence of Gg” value is on record?
A: The value was “reduce the incidence of Gg in previously infested fields”.

Q: For `CCNC(=O)c1c(NC(C)(C)CC)ccc2ccccc12` [Example 22, N-ethyl 2-[(1,1-dimethylpropyl)amino]-1-naphthamide], which “incidence of Gg” value is on record?
A: Its value is “reduce the incidence of Gg in previously infested fields”.

Q: Which “incidence of Gg” value does the source give for `CCNC(=O)c1c(NC(C)(CC)CC)ccc2ccccc12` [Example 23, N-ethyl 2-[(1,1-diethylethyl)amino]-1-naphthamide] here?
A: Its value is “reduce the incidence of Gg in previously infested fields”.

Q: Which “incidence of Gg” value does the source give for `CCCNC(=O)c1c(NC(C)(CC)CC)ccc2ccccc12` [Example 24, N-propyl 2-[(1,1-diethylethyl)amino]-1-naphthamide] here?
A: The value was “reduce the incidence of Gg in previously infested fields”.

Q: `CCCNC(=O)c1c(NC(C)(C)CC)ccc2ccccc12` [Example 25, N-propyl 2-[(1,1-dimethylpropyl)amino]-1-naphthamide] was tested. Which “incidence of Gg” value did it give?
A: The value was “reduce the incidence of Gg in previously infested fields”.

Q: Which “incidence of Gg” value does the source give for `CCNC(=O)c1c(OC(C)(C)CC)ccc2ccccc12` [Example 26, N-ethyl 2-[(1,1-dimethylpropyl)oxy]-1-naphthamide] here?
A: Its value is “reduce the incidence of Gg in previously infested fields”.

Q: Which “incidence of Gg” value does the source give for `C=CCNC(=O)c1c(OC(C)(C)CC)ccc2ccccc12` [Example 27, N-allyl 2-[(1,1-dimethylpropyl)oxy]-1-naphthamide] here?
A: Its value is “reduce the incidence of Gg in previously infested fields”.

Q: How did the “incidence of Gg” value turn out when `CCNC(=O)c1c(OC(C)(CC)CC)ccc2ccccc12` [Example 28, N-ethyl 2-[(1,1-diethylethyl)oxy]-1-naphthamide] was run?
A: Its value is “reduce the incidence of Gg in previously infested fields”.

Q: `C=CCNC(=O)c1c(OC(C)(CC)CC)ccc2ccccc12` [Example 29, N-allyl 2-[(1,1-diethylethyl)oxy]-1-naphthamide] was tested. Which “incidence of Gg” value did it give?
A: The value was “reduce the incidence of Gg in previously infested fields”.

Q: For `CCN(CC)C(=O)c1c(OC(C)(CC)CC)ccc2ccccc12` [Example 30, N,N-diethyl 2-[(1,1-diethylethyl)oxy]-1-naphthamide], which “incidence of Gg” value is on record?
A: Its value is “reduce the incidence of Gg in previously infested fields”.

Q: Which “incidence of Gg” value does the source give for `CCCNC(=O)c1c(OC(C)(CC)CC)ccc2ccccc12` [Example 31, N-propyl 2-[(1,1-diethylethyl)oxy]-1-naphthamide] here?
A: The value was “reduce the incidence of Gg in previously infested fields”.

Q: For `CCNC(=O)c1c(OC(CC)(CC)CC)ccc2ccccc12` [Example 32, N-ethyl 2-[(1,1-diethylpropyl)oxy]-1-naphthamide], which “incidence of Gg” value is on record?
A: Its value is “reduce the incidence of Gg in previously infested fields”.

Q: How did the “incidence of Gg” value turn out when `C=CCNC(=O)c1c(OC(CC)(CC)CC)ccc2ccccc12` [Example 33, N-allyl 2-[(1,1-diethylpropyl)oxy]-1-naphthamide] was run?
A: The value was “reduce the incidence of Gg in previously infested fields”.

Q: `CCCNC(=O)c1c(OC(CC)(CC)CC)ccc2ccccc12` [Example 34, N-propyl 2-[(1,1-diethylpropyl)oxy]-1-naphthamide] was tested. Which “incidence of Gg” value did it give?
A: The value was “reduce the incidence of Gg in previously infested fields”.

Q: With `CCCN(CCC)C(=O)c1c(OC(CC)(CC)CC)ccc2ccccc12` [Example 35, N,N-dipropyl 2-[(1,1-diethylpropyl)oxy]-1-naphthamide] as the molecule, how does the “incidence of Gg” value read?
A: The value was “reduce the incidence of Gg in previously infested fields”.

Q: `CCNC(=O)c1c(OC2(C)CCCC2)ccc2ccccc12` [Example 36, N-ethyl 2-[(1-methyl-1-cyclopentyl)oxy]-1-naphthamide] was tested. Which “incidence of Gg” value did it give?
A: The value was “reduce the incidence of Gg in previously infested fields”.

Q: With `C=CCNC(=O)c1c(OC2(C)CCCC2)ccc2ccccc12` [Example 37, N-allyl 2-[(1-methyl-1-cyclopentyl)oxy]-1-naphthamide] as the molecule, how does the “incidence of Gg” value read?
A: Its value is “reduce the incidence of Gg in previously infested fields”.

Q: How did the “incidence of Gg” value turn out when `CCNC(=O)c1c(OC2(C)CCCCC2)ccc2ccccc12` [Example 38, N-ethyl 2-[(1-methyl-1-cyclohexyl)oxy]-1-naphthamide] was run?
A: Its value is “reduce the incidence of Gg in previously infested fields”.

Q: With `C=CCNC(=O)c1c(OC2(C)CCCCC2)ccc2ccccc12` [Example 39, N-allyl 2-[(1-methyl-1-cyclohexyl)oxy]-1-naphthamide] as the molecule, how does the “incidence of Gg” value read?
A: Its value is “reduce the incidence of Gg in previously infested fields”.

Q: How did the “incidence of Gg” value turn out when `CCCNC(=O)c1c(OC2(C)CCCCC2)ccc2ccccc12` [Example 40, N-propyl 2-[(1-methyl-1-cyclohexyl)oxy]-1-naphthamide] was run?
A: Its value is “reduce the incidence of Gg in previously infested fields”.
